Article PMC6572771
These are yes or no findings as the source states them, for the method shown. In cells and extracts the contact can be indirect. Some entries that bind do so weakly or less than the wild type. Where a sequence is shown, tags or fusion partners need not be part of it.

Target: T1, Sbh1-HA (S. cerevisiae) (UniProt P52870)
T1 sequence: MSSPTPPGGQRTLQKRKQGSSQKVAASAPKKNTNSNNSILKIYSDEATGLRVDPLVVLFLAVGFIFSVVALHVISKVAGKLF
Experiment: co-IP; native co-IP from microsomes of WT and opi3Δ cells solubilised in 1% digitonin (50 mM Tris pH 7.5, 150 mM NaCl, 5 mM EDTA); anti-HA antibodies and Protein G beads overnight at 4 °C; blot with anti-Sec61 and anti-HA

- binding: binds
B1: Sec61 (endogenous) (protein, UniProt P32915 1-480)
chain: MSSNRVLDLFKPFESFLPEVIAPERKVPYNQKLIWTGVSLLIFLILGQIPLYGIVSSETSDPLYWLRAMLASNRGTLLELGVSPIITSSMIFQFLQGTQLLQIRPESKQDRELFQIAQKVCAIILILGQALVVVMTGNYGAPSDLGLPICLLLIFQLMFASLIVMLLDELLSKGYGLGSGISLFTATNIAEQIFWRAFAPTTVNSGRGKEFEGAVIAFFHLLAVRKDKKRALVEAFYRTNLPNMFQVLMTVAIFLFVLYLQGFRYELPIRSTKVRGQIGIYPIKLFYTSNTPIMLQSALTSNIFLISQILFQKYPTNPLIRLIGVWGIRPGTQGPQMALSGLAYYIQPLMSLSEALLDPIKTIVYITFVLGSCAVFSKTWIEISGTSPRDIAKQFKDQGMVINGKRETSIYRELKKIIPTAAAFGGATIGALSVGSDLLGTLGSGASILMATTTIYGYYEAAAKEGGFTKNLVPGFSDLM
